Experimental data: PubChem BioAssay AID1259405 (NCATS, 2018)
This is an unselected part of about 50,000 deposited reagents. In the full data, about 4,000 (8%) got an active call. 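Mouse siRNA library applied to hamster cells; one well for each siRNA.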 Unmarked entries are inactive. Reagents against one gene are numbered here. Further read-outs or replicates are left out here. No sequences are given here.

Aim: 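Knock-downs that lift recombinant protein yield in hamster ovary cells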 (primary screen)
System: Chinese hamster CHO-K1 ovary cells with stable secreted eGFP expression
Reagent: single siRNA against mouse genes, 0.8 pmol siRNA per well (2 µl of 400 nM stock)
Duration: 3 days
Detection: 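Per-well intracellular GFP measured by laser scanning cytometry, plus viability from ATP luminescence, each relative to plate median of non-targeting control wells, in %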
Direction: GFP, % of control: higher = more GFP per well, higher productivity
Rule for the call: 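a knock-down is called active if GFP reaches 120% or more of non-targeting control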

GFP, % of control, by gene and reagent
Trip12: #1 49.3; #2 72.6; #3 67.8
Plppr1: #1 97.7; #2 55.9; #3 72.1
Sri: #1 89.4; #2 87.4
Hus1: #1 45.5; #2 82.2; #3 75.3
Nox1: #1 110; #2 30.3; #3 80.2
Fasn: #1 94.6; #2 77.2; #3 103
Ppm1b: #1 167 (active); #2 87.9; #3 70.5
Ttc9c: #1 107; #2 85.1; #3 32.3
Trappc2b: #1 79.9; #2 70.9; #3 69.8
Mpdz: #1 61.6; #2 93.9; #3 92.2
Mrpl38: #1 31.9; #2 87.6; #3 74.8
Unc45b: #1 39.1; #2 79.9; #3 87.7
Sel1l3: #1 65.1; #2 134 (active); #3 75.6
Atp5pb: #1 82.8; #2 99; #3 33.7
Arid3c: #1 78.2; #2 77.7; #3 64.4
Eif2b1: #1 94.7; #2 65.9; #3 79
Clca1: #1 51.8; #2 46.9; #3 54.4
Hmgcr: #1 75.3; #2 91; #3 25.8
Pcdhgc5: #1 103; #2 74.5; #3 34.9
Tmx1: #1 100; #2 159 (active); #3 92.3
Ndst1: #1 89.8; #2 79.3; #3 62.4
Ap3b2: #1 92.4; #2 45.9
Slc4a4: #1 123 (active); #2 160 (active); #3 73.3
Pcdhga5: #1 93.9; #2 49.5; #3 70.2
Plekhb2: #1 59.9; #2 54.3; #3 84.7
Mocs2: #1 104; #2 28; #3 70.5
Or6c211: #1 85.1; #2 101; #3 93.3
Mcm4: #1 74.3; #2 70.7; #3 76.1
Cpa4: #1 57.9; #2 45.9; #3 46.4
Tipin: #1 89.8; #2 65.1; #3 95.9
Kif11: #1 60.8; #2 61.2
Chac2: #1 92.4; #2 52.7; #3 66.1
Sh3rf1: #1 82.1; #2 86.9; #3 76.9
Cd200r3: #1 74; #2 53.4; #3 98.2
Ptms: #1 76.4; #2 142 (active); #3 109
Spata31d1a: #1 37.6; #2 54.1; #3 56.5
Prune2: #1 66; #2 94; #3 77.1
